Measurements published in the supplement of paper PMC11006884.
The entries are a selection whose mix differs from that of the whole data set. Single values of this set are uncertain.

By UniProt entry, the sequences of proteins in these tests, tags left out. Where a name states a change or a piece, a line headed by the entry shows the natural chain unless it says otherwise.
UniProt Q8WVV9: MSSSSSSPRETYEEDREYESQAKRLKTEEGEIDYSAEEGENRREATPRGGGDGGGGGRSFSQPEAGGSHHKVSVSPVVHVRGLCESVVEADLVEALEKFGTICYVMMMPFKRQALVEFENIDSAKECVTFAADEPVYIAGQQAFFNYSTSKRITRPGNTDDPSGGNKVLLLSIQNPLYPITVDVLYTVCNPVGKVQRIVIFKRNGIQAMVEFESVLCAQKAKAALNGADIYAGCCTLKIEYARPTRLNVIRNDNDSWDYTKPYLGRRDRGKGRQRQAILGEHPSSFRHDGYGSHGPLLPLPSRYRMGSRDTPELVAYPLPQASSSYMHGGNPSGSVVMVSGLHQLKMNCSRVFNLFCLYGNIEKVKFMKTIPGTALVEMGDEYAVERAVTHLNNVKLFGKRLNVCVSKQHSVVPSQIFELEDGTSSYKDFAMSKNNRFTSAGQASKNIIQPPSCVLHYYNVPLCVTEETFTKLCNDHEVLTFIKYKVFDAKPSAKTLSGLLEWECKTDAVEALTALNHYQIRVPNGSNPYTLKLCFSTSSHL
UniProt Q8TF05: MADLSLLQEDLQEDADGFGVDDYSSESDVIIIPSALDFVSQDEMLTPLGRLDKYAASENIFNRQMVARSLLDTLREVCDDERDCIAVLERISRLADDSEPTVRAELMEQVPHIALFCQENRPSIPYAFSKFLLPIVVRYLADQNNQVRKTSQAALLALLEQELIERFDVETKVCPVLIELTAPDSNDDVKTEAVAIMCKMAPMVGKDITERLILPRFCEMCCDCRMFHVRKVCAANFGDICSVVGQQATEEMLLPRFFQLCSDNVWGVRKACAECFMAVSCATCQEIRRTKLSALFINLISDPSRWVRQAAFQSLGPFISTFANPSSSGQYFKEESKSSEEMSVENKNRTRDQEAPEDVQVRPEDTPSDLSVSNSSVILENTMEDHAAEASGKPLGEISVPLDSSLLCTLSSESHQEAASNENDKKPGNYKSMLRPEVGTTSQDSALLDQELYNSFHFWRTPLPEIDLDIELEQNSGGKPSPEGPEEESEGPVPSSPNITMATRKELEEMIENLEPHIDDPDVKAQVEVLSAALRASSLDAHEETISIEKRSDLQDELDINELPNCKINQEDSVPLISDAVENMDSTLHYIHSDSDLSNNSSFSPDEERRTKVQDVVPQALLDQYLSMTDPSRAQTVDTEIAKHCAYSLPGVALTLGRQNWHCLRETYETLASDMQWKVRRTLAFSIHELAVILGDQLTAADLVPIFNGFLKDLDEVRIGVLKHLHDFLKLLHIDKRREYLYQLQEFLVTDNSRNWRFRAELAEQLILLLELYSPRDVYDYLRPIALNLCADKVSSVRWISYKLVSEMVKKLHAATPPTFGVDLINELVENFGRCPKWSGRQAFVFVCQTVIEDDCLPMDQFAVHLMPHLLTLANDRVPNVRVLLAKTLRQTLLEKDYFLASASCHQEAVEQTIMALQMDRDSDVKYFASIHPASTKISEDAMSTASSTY
UniProt Q8N0W3: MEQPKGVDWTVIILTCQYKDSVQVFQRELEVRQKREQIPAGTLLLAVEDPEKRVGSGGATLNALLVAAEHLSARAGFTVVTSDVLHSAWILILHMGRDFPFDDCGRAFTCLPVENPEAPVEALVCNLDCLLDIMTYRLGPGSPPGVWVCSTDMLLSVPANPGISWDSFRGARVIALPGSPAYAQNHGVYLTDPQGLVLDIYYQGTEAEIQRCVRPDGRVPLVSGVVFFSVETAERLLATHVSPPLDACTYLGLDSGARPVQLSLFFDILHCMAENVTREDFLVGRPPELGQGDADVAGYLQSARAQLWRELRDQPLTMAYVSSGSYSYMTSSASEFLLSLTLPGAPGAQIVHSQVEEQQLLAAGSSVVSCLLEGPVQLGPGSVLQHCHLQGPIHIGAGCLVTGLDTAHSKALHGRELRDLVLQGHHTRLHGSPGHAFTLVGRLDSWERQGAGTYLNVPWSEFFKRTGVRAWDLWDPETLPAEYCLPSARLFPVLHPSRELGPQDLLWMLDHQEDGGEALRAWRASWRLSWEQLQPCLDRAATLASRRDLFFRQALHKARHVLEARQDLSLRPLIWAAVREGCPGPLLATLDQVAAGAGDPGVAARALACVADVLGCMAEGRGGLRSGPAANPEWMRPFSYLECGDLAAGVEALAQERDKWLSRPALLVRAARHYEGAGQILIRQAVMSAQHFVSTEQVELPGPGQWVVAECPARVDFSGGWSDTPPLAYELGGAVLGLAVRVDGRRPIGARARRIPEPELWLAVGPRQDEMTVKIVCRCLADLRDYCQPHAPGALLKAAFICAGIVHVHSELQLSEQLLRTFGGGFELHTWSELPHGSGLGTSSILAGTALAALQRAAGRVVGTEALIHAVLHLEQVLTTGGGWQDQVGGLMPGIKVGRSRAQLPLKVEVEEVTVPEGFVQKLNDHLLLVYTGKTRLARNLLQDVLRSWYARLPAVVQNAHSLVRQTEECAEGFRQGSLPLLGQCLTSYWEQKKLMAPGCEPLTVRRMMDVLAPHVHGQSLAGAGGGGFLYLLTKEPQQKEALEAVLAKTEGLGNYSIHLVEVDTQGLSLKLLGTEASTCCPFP
UniProt Q8N3F8: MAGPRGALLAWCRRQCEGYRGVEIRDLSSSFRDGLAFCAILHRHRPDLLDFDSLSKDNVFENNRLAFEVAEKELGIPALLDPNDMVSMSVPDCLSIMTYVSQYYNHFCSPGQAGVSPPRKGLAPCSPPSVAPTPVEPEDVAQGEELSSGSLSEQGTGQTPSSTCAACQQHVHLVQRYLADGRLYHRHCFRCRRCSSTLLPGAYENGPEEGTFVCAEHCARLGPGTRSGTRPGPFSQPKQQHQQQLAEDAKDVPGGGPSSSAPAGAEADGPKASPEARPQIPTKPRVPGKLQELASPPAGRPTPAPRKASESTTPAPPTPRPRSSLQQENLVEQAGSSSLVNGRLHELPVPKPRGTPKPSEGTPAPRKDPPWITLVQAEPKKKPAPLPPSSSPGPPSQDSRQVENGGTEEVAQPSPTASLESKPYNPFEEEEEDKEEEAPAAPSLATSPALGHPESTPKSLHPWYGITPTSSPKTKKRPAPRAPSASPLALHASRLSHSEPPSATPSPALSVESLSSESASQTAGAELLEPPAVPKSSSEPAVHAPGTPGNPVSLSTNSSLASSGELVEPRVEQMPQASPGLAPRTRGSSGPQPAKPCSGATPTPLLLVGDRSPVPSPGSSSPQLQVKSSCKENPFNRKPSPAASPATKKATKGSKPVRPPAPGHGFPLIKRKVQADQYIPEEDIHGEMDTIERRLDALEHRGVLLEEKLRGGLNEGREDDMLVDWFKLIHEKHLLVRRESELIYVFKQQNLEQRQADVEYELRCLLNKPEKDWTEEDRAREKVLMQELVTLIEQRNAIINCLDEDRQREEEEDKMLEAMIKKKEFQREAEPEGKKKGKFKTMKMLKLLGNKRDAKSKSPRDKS
UniProt Q8TAQ2, whole entry: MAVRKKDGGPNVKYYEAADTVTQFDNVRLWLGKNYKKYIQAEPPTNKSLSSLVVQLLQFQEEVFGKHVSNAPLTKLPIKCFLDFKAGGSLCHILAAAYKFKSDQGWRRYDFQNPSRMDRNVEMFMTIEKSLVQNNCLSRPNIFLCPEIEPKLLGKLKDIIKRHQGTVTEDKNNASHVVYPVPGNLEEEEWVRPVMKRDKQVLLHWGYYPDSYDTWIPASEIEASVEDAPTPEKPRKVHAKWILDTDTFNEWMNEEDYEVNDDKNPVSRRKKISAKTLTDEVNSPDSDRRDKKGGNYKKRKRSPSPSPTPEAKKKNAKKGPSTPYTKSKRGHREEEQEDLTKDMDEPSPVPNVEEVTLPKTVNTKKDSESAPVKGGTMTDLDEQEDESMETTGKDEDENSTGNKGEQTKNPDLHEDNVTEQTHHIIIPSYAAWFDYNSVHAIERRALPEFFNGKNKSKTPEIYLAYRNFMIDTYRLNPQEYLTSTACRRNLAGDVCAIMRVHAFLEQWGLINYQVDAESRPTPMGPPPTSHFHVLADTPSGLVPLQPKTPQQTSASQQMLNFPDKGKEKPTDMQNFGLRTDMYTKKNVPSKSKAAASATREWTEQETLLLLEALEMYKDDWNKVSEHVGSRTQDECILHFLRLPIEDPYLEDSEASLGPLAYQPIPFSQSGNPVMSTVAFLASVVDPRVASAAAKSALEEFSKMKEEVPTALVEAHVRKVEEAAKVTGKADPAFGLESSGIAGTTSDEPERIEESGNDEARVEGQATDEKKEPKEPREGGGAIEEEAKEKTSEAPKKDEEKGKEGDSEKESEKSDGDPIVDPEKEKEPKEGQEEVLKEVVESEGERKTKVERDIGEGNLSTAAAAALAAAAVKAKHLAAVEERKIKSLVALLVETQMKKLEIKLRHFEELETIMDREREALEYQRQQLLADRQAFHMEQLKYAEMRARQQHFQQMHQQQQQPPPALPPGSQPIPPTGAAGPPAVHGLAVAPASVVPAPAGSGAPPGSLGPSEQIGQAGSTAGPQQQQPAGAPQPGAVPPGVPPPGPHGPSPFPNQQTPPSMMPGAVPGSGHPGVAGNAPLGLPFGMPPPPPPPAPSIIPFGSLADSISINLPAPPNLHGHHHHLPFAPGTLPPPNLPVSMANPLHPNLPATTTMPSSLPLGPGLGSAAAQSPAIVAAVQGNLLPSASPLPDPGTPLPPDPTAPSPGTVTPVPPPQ
UniProt Q8N954: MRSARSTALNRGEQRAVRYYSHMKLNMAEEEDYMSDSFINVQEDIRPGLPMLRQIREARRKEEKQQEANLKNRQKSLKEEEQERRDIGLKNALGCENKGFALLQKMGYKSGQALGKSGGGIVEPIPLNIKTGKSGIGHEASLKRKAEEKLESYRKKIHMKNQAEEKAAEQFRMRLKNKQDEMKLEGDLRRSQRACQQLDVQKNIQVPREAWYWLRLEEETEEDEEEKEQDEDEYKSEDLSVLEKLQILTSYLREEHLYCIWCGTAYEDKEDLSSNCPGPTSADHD
UniProt Q8NDX6: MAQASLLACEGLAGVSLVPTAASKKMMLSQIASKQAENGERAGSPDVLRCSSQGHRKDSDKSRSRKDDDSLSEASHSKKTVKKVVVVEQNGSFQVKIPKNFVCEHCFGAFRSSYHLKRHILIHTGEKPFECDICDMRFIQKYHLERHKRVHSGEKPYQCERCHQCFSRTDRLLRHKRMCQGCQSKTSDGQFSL
UniProt Q8WVB6, whole entry: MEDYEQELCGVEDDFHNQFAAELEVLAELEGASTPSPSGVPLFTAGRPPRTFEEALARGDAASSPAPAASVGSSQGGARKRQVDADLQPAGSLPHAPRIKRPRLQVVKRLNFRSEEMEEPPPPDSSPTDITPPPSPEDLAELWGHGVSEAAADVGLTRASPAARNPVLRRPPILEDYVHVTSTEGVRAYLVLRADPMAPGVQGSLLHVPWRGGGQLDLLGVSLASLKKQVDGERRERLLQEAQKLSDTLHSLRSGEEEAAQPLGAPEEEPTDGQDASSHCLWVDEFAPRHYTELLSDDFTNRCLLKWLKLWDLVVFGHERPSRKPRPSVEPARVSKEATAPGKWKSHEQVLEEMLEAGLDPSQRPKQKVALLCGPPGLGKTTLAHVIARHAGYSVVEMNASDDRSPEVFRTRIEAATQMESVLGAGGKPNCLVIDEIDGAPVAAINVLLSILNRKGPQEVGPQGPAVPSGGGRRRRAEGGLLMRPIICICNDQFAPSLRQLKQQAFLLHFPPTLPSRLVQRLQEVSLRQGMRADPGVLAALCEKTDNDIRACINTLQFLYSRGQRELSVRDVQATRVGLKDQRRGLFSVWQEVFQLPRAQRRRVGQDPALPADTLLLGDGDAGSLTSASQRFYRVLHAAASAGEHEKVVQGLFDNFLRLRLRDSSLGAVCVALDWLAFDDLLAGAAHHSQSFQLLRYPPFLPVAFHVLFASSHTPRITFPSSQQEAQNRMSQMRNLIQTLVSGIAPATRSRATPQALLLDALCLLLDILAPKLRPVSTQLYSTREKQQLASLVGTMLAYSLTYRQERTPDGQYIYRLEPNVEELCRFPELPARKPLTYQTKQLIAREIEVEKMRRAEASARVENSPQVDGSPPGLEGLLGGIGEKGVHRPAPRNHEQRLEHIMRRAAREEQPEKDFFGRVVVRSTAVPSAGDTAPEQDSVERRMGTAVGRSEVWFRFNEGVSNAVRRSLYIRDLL
UniProt Q8N8R5: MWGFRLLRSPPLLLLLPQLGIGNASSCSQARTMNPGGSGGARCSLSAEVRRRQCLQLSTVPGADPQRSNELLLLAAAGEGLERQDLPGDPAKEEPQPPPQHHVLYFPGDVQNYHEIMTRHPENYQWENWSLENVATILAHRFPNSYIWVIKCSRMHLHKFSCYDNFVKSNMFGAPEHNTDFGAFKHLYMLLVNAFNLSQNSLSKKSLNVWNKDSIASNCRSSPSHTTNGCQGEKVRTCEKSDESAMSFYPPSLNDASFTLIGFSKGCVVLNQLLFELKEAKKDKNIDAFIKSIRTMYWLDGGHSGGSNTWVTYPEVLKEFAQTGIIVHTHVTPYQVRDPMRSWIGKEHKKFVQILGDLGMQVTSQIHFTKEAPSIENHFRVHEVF

Compound: COC(=O)/C=C/c1ccccc1 [methyl cinnamate]
Assay: log2 ratio of iodoacetamide-alkyne labeling of the cysteine site, DMSO over compound (competition); higher = stronger covalent engagement of the cysteine by the compound, active = 1 or more
Conditions: 500 µM; treatment time 1 h; system: HEK293T cell lysate
Procedure, shortened: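 HEK293T lysate (2 mg/mL) was treated with DMSO or electrophile (500 µM, 1 h, ambient temperature), then iodoacetamide alkyne (1 h), clicked to sCIP-TMT reagents, pooled, trypsin-digested overnight at 37 °C, streptavidin-enriched and acid-eluted. Peptides were run on Orbitrap Eclipse LC-MS/MS with FAIMS and quantified in FragPipe. The log2 competition ratio per cysteine is mean control-channel over mean compound-channel reporter intensity. Duplicate channels and three replicates were used, and cysteines quantified in only one replicate were excluded.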

log2 ratio of iodoacetamide-alkyne labeling, inactive:
UniProt Q8WVV9_C103 -0.252
UniProt Q8WZA9_C152 0.232
PHIP C612 (UniProt Q8WWQ0) -0.097
PPP4R1 C261 (UniProt Q8TF05) 0.165
UniProt Q8N0W3_C484 0.12
SYNE1 C6090 (UniProt Q8NF91) 0.62
NCOA7 C439 (UniProt Q8NI08) 0.231
MICALL1 C597 (UniProt Q8N3F8) 0.402
LSM14A C375 (UniProt Q8ND56) 0.423
SMARCC2 C145 (UniProt Q8TAQ2) 0.188
UniProt Q8N954_C95 0.385
ZNF740 C9 (UniProt Q8NDX6) 0.458
SMAP2 C196 (UniProt Q8WU79) -0.000945
CHTF18 C542 (UniProt Q8WVB6) -0.0263
PDCD6IP C512 (UniProt Q8WUM4) -0.0251
C2orf69 C54 (UniProt Q8N8R5) 0.221

Four consecutive records out of the list so far:
log2 ratio of iodoacetamide-alkyne labeling, inactive:
UniProt Q8WZA9_C152 0.232
PHIP C612 (UniProt Q8WWQ0) -0.097
PPP4R1 C261 (UniProt Q8TF05) 0.165
UniProt Q8N0W3_C484 0.12
